Sequences of proteins named here, by UniProt entry; tags and fusion partners are left off.
UniProt Q93009, whole entry: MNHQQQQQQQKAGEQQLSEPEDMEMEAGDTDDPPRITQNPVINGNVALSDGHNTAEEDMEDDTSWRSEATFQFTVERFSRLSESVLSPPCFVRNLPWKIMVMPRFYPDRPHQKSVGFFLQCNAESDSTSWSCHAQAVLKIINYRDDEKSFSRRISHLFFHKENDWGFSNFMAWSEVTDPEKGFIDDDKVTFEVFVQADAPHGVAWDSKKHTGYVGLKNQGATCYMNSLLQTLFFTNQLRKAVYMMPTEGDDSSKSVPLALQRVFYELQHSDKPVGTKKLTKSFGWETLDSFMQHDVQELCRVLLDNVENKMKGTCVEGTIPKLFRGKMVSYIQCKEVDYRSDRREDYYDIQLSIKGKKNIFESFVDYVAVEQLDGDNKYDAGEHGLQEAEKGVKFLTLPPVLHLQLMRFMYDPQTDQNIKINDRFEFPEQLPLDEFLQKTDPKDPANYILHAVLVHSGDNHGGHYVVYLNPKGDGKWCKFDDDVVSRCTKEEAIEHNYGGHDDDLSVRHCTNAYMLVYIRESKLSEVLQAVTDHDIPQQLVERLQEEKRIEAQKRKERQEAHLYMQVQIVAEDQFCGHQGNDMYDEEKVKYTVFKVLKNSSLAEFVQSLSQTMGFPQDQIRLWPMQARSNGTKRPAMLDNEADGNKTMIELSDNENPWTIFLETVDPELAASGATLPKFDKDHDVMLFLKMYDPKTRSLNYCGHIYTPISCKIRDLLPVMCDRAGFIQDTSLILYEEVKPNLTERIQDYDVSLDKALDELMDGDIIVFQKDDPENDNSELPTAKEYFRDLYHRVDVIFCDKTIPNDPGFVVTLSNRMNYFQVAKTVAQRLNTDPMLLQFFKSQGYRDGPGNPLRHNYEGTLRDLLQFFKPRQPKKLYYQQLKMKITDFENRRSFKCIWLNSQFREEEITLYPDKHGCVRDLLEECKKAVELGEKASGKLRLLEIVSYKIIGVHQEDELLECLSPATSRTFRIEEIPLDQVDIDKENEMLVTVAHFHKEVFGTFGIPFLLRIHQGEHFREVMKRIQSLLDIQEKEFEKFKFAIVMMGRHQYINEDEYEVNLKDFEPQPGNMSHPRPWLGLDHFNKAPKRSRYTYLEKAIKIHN

In US20130281314A1 (Genentech, published 2013):

How the values were obtained:
full-length USP7 = full-length USP7 (UniProt Q93009 1-1102); assay: cell-based or functional assay
USP5 = target: T1, USP5 (UniProt P45974 1-858, limits assumed); assay: cell-based or functional assay
T1 sequence (looked up): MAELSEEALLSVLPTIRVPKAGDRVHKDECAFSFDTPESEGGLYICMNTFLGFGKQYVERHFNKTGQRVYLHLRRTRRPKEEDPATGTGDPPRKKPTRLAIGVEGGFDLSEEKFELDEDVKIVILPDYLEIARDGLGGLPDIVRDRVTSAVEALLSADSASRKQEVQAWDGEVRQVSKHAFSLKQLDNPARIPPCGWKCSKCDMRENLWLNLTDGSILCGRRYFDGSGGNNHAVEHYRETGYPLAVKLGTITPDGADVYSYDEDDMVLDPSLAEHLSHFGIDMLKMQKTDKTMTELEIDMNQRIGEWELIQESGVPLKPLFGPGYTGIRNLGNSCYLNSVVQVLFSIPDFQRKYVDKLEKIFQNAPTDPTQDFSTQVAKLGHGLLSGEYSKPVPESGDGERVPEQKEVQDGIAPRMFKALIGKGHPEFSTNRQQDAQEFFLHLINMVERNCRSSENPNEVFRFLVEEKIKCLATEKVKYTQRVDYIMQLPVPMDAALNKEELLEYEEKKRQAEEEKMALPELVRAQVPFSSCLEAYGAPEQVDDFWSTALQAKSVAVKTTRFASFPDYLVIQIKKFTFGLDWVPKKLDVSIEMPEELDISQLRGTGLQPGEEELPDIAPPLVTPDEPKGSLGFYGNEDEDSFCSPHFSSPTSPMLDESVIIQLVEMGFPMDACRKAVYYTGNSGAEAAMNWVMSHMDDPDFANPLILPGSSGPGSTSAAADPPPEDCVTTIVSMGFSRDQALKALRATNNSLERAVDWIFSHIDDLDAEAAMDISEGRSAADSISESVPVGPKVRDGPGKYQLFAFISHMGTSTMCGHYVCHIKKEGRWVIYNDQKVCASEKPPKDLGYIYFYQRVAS

IC50, inhibition of full-length USP7 activity (full-length USP7): 160 nM
fold improvement relative to the ability of wildtype ubiquitin to inhibit USP7 (full-length USP7): > 1000 fold
IC50, inhibition of full-length USP5 (USP5): 253 nM
B1: U7Ub25.2540 (designed binder)
chain: MQIFVKFRTGKTYTLEVEPSDTIENVKAKIQDKLGIPPDQQWLIFAGKRLEDGRTLSDYNIQKESTLRGVRRLRGG
notes: also called U7Ub25.2540_R71; U7Ub25.250; not shown: N-terminal 6xHis tag of the pET derivative vector
